Data on two sequences can be found in paper PMC8457756.

In the data set the test system is BlaI_0696 (Clostridium thermocellum DSM 1313). The data set can be described thus: EMSA. As to conditions: EMSA: 0.5 uM dsDNA probe, semi-pure TF titrated, PBS + NP40, 10 uL; 6% polyacrylamide gel, 0.5x TBE, 100 V 1 h, room temperature running buffer; recombinant protein; protein details: C-terminal 6xHis.

Construct, isoform or probe ends are uncertain for at least one entry. Weaker means in comparison with the reference protein, sequence or condition of that experiment.

Take “AATTCCCTCGGGTCTATCAGCACTCCG (double strand) [BlaI_0696 test oligo]”: the binding result is reported as “binds”.

“TGATATGGGGTGTTTGCTGTTTTTGCC (double strand) [negative oligo 27 bp]”: the binding result was “binds more weakly”.
